# Data reported in patent US20090099240A1, “METHODS FOR TREATING ENERGY METABOLISM DISORDERS BY INHIBITING FATTY ACID AMIDE HYDROLASE ACTIVITY” (N.V. Organon, priority 2006, published 2009).
# At least one structure is not confirmed: it was looked up by name or label, or the drawing left a doubt.
# What was measured:
# Type in all cases: in vivo, mouse
# [1] = system: APOE*3-Leiden transgenic (E3L) mice; test: Total plasma cholesterol in E3L mice; conditions: days 14 and 28, relative to respective control group
# Text: (§1) We assessed the effect of inhibiting FAAH activity on body weight, body fat, triglyceride levels, cholesterol levels in APOE*3-Leiden transgenic (E3L) mice, an animal model of hyperlipidemia. […] See van Vlijmen et al. (1994), J. Clin Invest., 93:1403-1410. Indeed, upon high fat and cholesterol feeding, these mice develop various stages of atherosclerotic lesions depending on plasma total cholesterol levels and resembling those found in humans. See Groot et al. (1996), Arterioscler. Thromb. Vasc. Biol., 16:926-933; Versch ren et al. (2005), Arterioscler. Thromb. Vasc Biol., 25:161-167; and Lutgens et al. (1999), Circulation; 99(2):276-283). Thus, the E3L mouse is a suitable model for the investigation of the efficacy of anti-atherosclerotic drugs.
# (§2) E3L mice were fed a high cholesterol (1% w/w) diet (HC diet) for a period of four weeks. Animals were then matched based on their plasma cholesterol levels, and were divided into five groups, each of which was maintained on an HC diet.
# (§3) Blood samples were collected at days 0, 14, and 28 of the treatment period. At the end of the treatment period, animals were sacrificed, and various tissues and organs were analyzed. Unless otherwise indicated, values are mean±standard deviation (SD).
# [2] = system: APOE*3-Leiden transgenic (E3L) mice; test: Plasma lipoprotein profiles (size fractionation of pooled plasma) in E3L mice; conditions: day 28, FIG. 1
# Protocol: as §2
# Lipoprotein profiles were determined in pooled plasma from day 28, as described in Verschuren et al. (2005), Arterioscler. Thromb. Vasc Biol., 25:161-167. An equal amount of plasma per animal was used to prepare a plasma pool for each group. Plasma lipoproteins in each plasma pool were separated by size fractionation. Typically, VLDL, IDL/LDL and HDL lipoproteins are eluted in fractions 4-8, fractions 11-16 and fractions 17-20, respectively.
# [3] = system: APOE*3-Leiden transgenic (E3L) mice; test: Total plasma triglyceride levels in E3L mice; conditions: relative to respective control group
# Text: as §1, §2, §3
# [4] = system: APOE*3-Leiden transgenic (E3L) mice; test: Plasma alanine aminotransferase (ALAT) activity in E3L mice; conditions: day 28, compared to respective control group
# Protocol: as §2
# Levels of plasma alanine aminotransferase (ALAT) were determined on day 28 (table 7). Plasma ALAT is a measure of hepatic stress and increases in plasma ALAT levels are often associated with liver damage. […] Thus, a reduction in plasma ALAT levels is associated with improved liver function.
# [5] = system: APOE*3-Leiden transgenic (E3L) mice; test: Lipid content of liver (TLC) in E3L mice; conditions: compared to respective control group
# Text: as §2
# A reduction of Red Oil O staining in liver generally indicates reduced liver lipid content. We therefore quantified levels of lipids in livers from each animal, as described in Havekes et al. (1987), Biochem. J., 247:739-746; Delsing et al. (2005), J. Cardiovasc. Pharmacol., 45:53-60; and Post et al. (2004), ATVB, 24:768-774. Liver tissue homogenates were prepared. Lipids were extracted, dried under nitrogen, dissolved in chloroform, and spotted onto a channeled 20×20 cm silica gel thin layer chromatography (TLC) plate. Lipids were then separated, TLC plates were warmed up to visualize bands, and bands were quantified using an internal standard as reference.
smiles,measurement,setting,value
"CC(C)OC(=O)C(C)(C)Oc1ccc(C(=O)c2ccc(Cl)cc2)cc1 [Fenofibrate, fenofibrate]","total plasma cholesterol levels, in words",[1],significantly decreased
same,"VLDL and LDL fractions, in words",[2],decreases
same,"total plasma triglyceride levels, in words",[3],"substantial, and significant decrease"
same,"plasma ALAT levels, in words",[4],No significant change
same,"liver triglycerides (TG), in words",[5],significantly increased
